In PMC8772724 one finds binding data, which are given here for one substance.

Amino acid sequences for entries named in this document (tags omitted).
UniProt P55211: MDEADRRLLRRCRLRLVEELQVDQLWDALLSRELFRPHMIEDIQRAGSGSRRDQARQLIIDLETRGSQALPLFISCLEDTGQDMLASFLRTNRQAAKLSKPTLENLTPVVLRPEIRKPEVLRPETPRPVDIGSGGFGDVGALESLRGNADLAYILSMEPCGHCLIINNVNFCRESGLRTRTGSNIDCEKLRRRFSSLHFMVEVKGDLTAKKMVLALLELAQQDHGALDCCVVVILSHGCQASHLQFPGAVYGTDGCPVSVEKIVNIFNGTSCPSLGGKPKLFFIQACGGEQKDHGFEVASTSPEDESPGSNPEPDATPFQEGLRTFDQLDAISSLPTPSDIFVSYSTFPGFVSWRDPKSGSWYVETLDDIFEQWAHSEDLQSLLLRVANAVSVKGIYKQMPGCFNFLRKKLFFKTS
UniProt P99999: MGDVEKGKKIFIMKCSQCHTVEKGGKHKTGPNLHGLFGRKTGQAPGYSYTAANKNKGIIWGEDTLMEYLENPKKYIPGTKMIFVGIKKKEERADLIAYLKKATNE

The experiment concerns the target procaspase-9 (human (endogenous in AC-16)) (UniProt P55211). Put plainly: co-IP; procaspase-9 immunoprecipitated (5 ug antibody, protein A/G agarose) from 750 ug non-denatured AC-16 lysate (20 mM Tris, 137 mM NaCl, 2 mM EDTA, 1% Nonidet P-40, 10% glycerol, pH 7.4); preys measured by tandem sandwich ELISA; cells under normoxia, hypoxia (18 h) or hypoxia-reoxygenation (18 h + 8 h), with miR-210 overexpression or miR-210-3p decoy/inhibitor; rabbit IgG control. (In general: In an ELISA, binding on a coated surface is turned into a signal by an enzyme label.)

No constants are given. Whether binding was seen depends on the method and setting. Binding seen in cells or lysates may run through a third protein. Some binding calls cover weakened binding; strength is not graded here.

In the case of “cytochrome c (from UniProt P99999 1-105)”, the binding entry is “binds”.
